Measured values reported in patent US20020146750A1.
Substitutions are numbered along the chain they refer to. Results are given in words; binding and its absence hold for the method and conditions named. Some binding calls cover weakened binding; strength is not graded here.

B1: 10A8 (Fab, V domains shown)
VH: QVQLVQSGGGLVQPGGSLRLSCAASGFTFRSNAMGWVRQAPGKGLEWVSGISGSGGSTYYADSVKGRFTISRDNSKNTLYLQMNSLRAEDTAVYYCARHTGGGVWDPIGYWGQGTLVTVSS
VL: EIVLTQSPLSLPVTPGEPASISCRSSQSLLHSNGYTYLDWYLQKPGQSPQLLIYSGSHRASGVPDRFSGSVSGTDFTLRISRVEAEDVGVYYCMQGLQSPFTFGPGTKVDIKR
B2: clone 7G8 (HSPOT library) (Fab, V domains shown)
VH: B1 VH with S31N, R98K, G109D
VL: B1 VL
B3: clone 10G9 (HSPOT library) (Fab, V domains shown)
VH: B1 VH with S31R, R98K, G109D
VL: B1 VL

Assays:
[1] = molecular target: MUC1 60-mer peptide NH2-(…)3-COOH; assay: ELISA, soluble Fab, biotinylated MUC1 60-mer; relative signal
[2] = molecular target: MUC1 60-mer peptide NH2-(…)3-COOH; assay: ELISA, Fab, biotinylated MUC1 60-mer

Row | Binder | binding [1] | binding [2]
1 | B1 | binds | 
2 | B2 |  | binds
3 | B3 |  | binds
